From the supplement of paper PMC12889115
Some of the results follow. These are raw signals, not scaled to a control.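 Primary screen: polymyxin B was added at a level permeabilizing Salmonella outer membranes while sparing inner membranes. DMSO wells, both with and without polymyxin B, established maximum growth. Plate-to-plate variation meant each plate was ranked on its own, and the lowest-OD600 compounds were selected as hits.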

System: Salmonella enterica serovar Typhimurium SL1344
Assay: bacterial growth OD600 after 18 h with compound and polymyxin B; higher = more bacterial growth (less inhibition)
Conditions: 50 µM, Mueller-Hinton broth

SMILES	bacterial growth OD600 (polymyxin B 1 µg/mL)	bacterial growth OD600 (polymyxin B 0.75 µg/mL)
CCCCNC(=O)N1CCC(CCC(=O)N(C)Cc2ccccc2)CC1	0.993	
CCC(NC1CCN(c2nc(C)c3cc(C)c(C)cc3n2)CC1)c1ccncc1 (stereo unspecified)		1.04
CCC(O)C1CCN(C(=O)CC2c3ccccc3CCc3ccccc32)CC1 (stereo unspecified)		0.524
CCCn1ncc(CN(CCOC)CC2CCCN(C3Cc4ccccc4C3)C2)c1C (stereo unspecified)		0.746
CCOC(=O)N1CCN(Cc2nc(-c3cc(F)cc(F)c3)oc2C)CC1	0.782	
NC(=O)C1(N2CCCCC2)CCN(C(=O)CCC2(Cc3ccc(Cl)cc3)CCC(=O)N2)CC1 (stereo unspecified)		0.827
CCO[C@H]1[C@H](NC(=O)c2cccnc2)c2ccccc2C12CCN(C(=O)CCn1cnnn1)CC2		0.788
COc1cccc(-c2n[nH]c3c2CN(Cc2cccc4c2OCO4)CC3)c1		0.369
Cc1nc(CNC(=O)c2cc(Cn3ccnc3C(C)C)[nH]n2)sc1C	0.895	
COc1ccc(CCN2CC(NC(=O)C(C)(C)C)CC2=O)cc1 (stereo unspecified)	0.487	
Cc1ccccc1-c1noc(-c2ccc(N(C)Cc3nccs3)nc2)n1		0.597
OC1(Cc2cc(-c3ccccc3)no2)CCN(Cc2cc3ccccc3o2)CC1	0.89	
O=C(CCc1nnc(Cc2c[nH]c3ccccc23)o1)NC12CC3CC(CC(C3)C1)C2	0.501	
COC(=O)C1CCN(C(=O)c2cc(COc3ccc(F)cc3Cl)on2)CC1	1.02	
O=C(Cn1c(=O)oc2ccccc21)NCc1nc(NCCCc2ccccc2)c2ccccc2n1		0.76
O=C(CCN1CCCC1=O)NCc1cccnc1-n1cnc2ccccc21	1.12	

SMILES	bacterial growth OD600 (polymyxin B 1 µg/mL)	bacterial growth OD600 (polymyxin B 0.75 µg/mL)
CCN(CC)c1ccc(C(=O)N2CCCN(c3ncccn3)CC2)cn1	0.876	
COc1cc(-c2n[nH]cc2CN(CCO)Cc2cccs2)cc(OC)c1OC	1.17	
O=C(NCC1CCCO1)c1ccc2oc(Cc3ccc(Cl)cc3)nc2c1 (stereo unspecified)		0.007
CCN1CCN(C2(C(=O)N(C)CC3CCOCC3)Cc3ccccc3C2)CC1		0.858
CCN(CCn1cccn1)C(=O)c1ccc(OC2CCN(C(=O)C3CC3)CC2)cc1	0.905	
O=C(C1CCC1)N1CCc2onc(-c3ccc(Cl)cc3)c2C1		0.571
CCC(=O)N(C)C(Cc1ccc(F)cc1F)C1CCN(C(=O)C2CC(=O)c3ccccc32)CC1 (stereo unspecified)		0.846
COc1cc(CC2(CCC(=O)NCC3C4CC5CC(C4)CC3C5)CCC(=O)N2)ccc1F (stereo unspecified)		0.849
CN(Cc1cccnc1)C(=O)c1csc2nc(-c3ccc(C(F)(F)F)cc3)cn12	1.07	
COC(=O)c1c(OC2CCCC2)cc(=O)n2c1CCN(C(=O)c1cc3ccccc3n1C)CC2		0.007
CC(Cc1cnccn1)NC(=O)c1cc(COc2cncc(Cl)c2)on1 (stereo unspecified)	1.01	
CCCn1c(C)c(CC(=O)NCCn2cccn2)c2c1CC(C)(C)CC2=O	0.894	
COc1ccc(CCN(C)C2CCCN(C(=O)c3ccoc3C)C2)cc1OC (stereo unspecified)	0.712	
O=C1CCCCN1CCNc1ccc(-c2nc(Cc3ccccc3)no2)cn1		0.718
CN1C(=O)CC(CC(=O)N2CCC(c3ccccc3Cl)C2)(c2ccc(-c3ccccc3)cc2)C1=O (stereo unspecified)		0.538

Rewritten in CSV form: two of the compounds above.
SMILES,bacterial growth OD600 (polymyxin B 1 µg/mL),bacterial growth OD600 (polymyxin B 0.75 µg/mL)
NC(=O)C1(N2CCCCC2)CCN(C(=O)CCC2(Cc3ccc(Cl)cc3)CCC(=O)N2)CC1 (stereo unspecified),,0.827
CCN(CC)c1ccc(C(=O)N2CCCN(c3ncccn3)CC2)cn1,0.876,
